Data as given in patent US7498404B2, “Compositions, methods and uses for a novel family of peptides” (priority 2004, dated 2009).
Part of at least one peptide drawing is inferred or uncertain, most often the ends. Square brackets hold non-standard residues; d marks the D form. Peptide text beside a SMILES is read from it. * marks the point of attachment. dOrn = NCCC[C@@H](N)C(=O)O; Valol = CC(C)[C@@H](CO)N*; Octanoyl = CCCCCCCC(=O)*

System: Staphylococcal aureus
Assay: Antibiotic activity of synthetic BT variants (MIC determination assay)
Assay type: cell-based
Details: FIG. 6

SMILES | antibiotic activity
CCCCCCCC(=O)N[C@H](C(=O)N[C@@H](CC(C)C)C(=O)N[C@H](CCCN)C(=O)N[C@H](C(=O)N[C@H](C(=O)N[C@H](C(=O)N[C@H](CCCCN)C(=O)N[C@H](C(=O)N[C@H](CC(C)C)C(=O)N[C@@H](CCCCN)C(=O)N[C@H](Cc1ccc(O)cc1)C(=O)N[C@@H](CC(C)C)C(=O)N[C@H](C(N)=O)C(C)C)C(C)C)C(C)C)C(C)C)[C@@H](C)CC)[C@@H](C)O [P59] (Octanoyl-TL[dOrn]IVV[dK]V[dL]K[dY]LV-NH2) | antibiotic activity
CCCCCCCC(=O)N[C@H](C(=O)N[C@@H](CC(C)C)C(=O)N[C@H](CCCN)C(=O)N[C@H](C(=O)N[C@H](C(=O)N[C@H](C(=O)N[C@H](CCCCN)C(=O)N[C@H](C(=O)N[C@H](CC(C)C)C(=O)N[C@@H](CCCCN)C(=O)N[C@H](Cc1ccc(O)cc1)C(=O)N[C@@H](CC(C)C)C(=O)N[C@H](CO)C(C)C)C(C)C)C(C)C)C(C)C)[C@@H](C)CC)[C@@H](C)O [P81] (Octanoyl-TL[dOrn]IVV[dK]V[dL]K[dY]L-Valol) | full antibiotic activity
